First the molecules themselves.
B1: CEP131 (protein, UniProt Q62036 1-1060)
chain: MKGSRTITATPEGSPEAVDLSLIGLPPPMSQRPGSASATRSIFRSMSVATGSEPRKKALEATGPGGPRAINNLRRSNSTTQVNQSWTGSPRPAEPTDFLMLFEGSTSGRRRVASLSKASSEKEATWNVLDEQPRGLALPASAQSPSTLDSALGPRRKECPLAPSFTANNRSNKGAVGNCVTTMVHNHYASSKMVSPPKSSNQTAPSLNNIVKAAAREGGEGSDLGKPRKNLSSASQSARGTTGLLRRREVTEEEAERFIHQVNQAAVTIQRWYRCQVQRRRAGAAALEHLLASKREGQRQRLGGGNLLELHRQEEAARKKAREEKARQARQAAIQVLQQKRAQKASEAEHRRPKDRPETRAPEQPRPMQEPGCVTHPKANNAGASIYPTGPADPCPPASESSPEQWQSPEDKPQDIHSQGEARQDLAVSGSSRGKARARATLDDLLDTLKLLEEEPEPLPHPKAYHKDRYAWTDEEEDANSLTADNLEKFGKLSAAPGPPDDGTLLSEAKLQSIMTFLDEMEKSGQERPAPWRESLVLEAGSGSEGSTSVMRLKLELEEKKQAMALLQRALAQQRDLTVRRVKETEKELTRQLRQQKEQYEATIQRHLSFIDQLIEDKKVLSEKCEAVVAELKHGDQRCRERVAQMQEQHELEIKKLKELMSATEKIRREKWINEKTKKIKEITVRGLEPEIQKLIAKHKQEVRRLRGLHEAELQQREEQAAQRHLRQAEELRQHLDREREVLGQQERERAQQRFEQHLEQEQRALEQQRRRLYNEVAEEKERLGQQAARQRAELEELRQQLEESSAALTRALRAEFERSREEQERRHQMELKALKDQLEAERQAWVASCAKKEEAWLLTRERELKEEIRKGRDQEIELVIHRLEADMTLAKEESERAAESRVKRVRDKYETELSELEQSERKLQERCSELKGRLGEAEGEKERLQSLVRQKEKELEDLRAVNTQMCSERASLAQVVRQEFAEQLAASQEETQRVKVELAELQARQQVELDEVHRRVKTALARKEAAVNSLRKQHEAAVKRADHLEELLEQHKGSSLSSK
B2: RABEP2 (protein, UniProt Q91WG2 1-554)
chain: MAAAPATLALDPQPQEKQKDASESSELSRLRAELAGALAEMETMKAVAEVSESTKAEAVAAVQRQCQEEVASLQAILKDSISSYETQIAALKQERQQQQQDFEEKDRELGHLKQLLARAHPLDSLEKQMEKAHEDSEKLREIVLPMEQEITELKGKLQRAEELIQEIQRRPRQPASLHGSTELLPLSRNPSPPLEPLEEPSGDAGPAAEAFAHNCDDSASISSFSLGGAAGSASLRGPQGLSPEQEETASLVSTGTLVPEGIFLPPPGYQLVPDSQWEQLQVEGRQLQKELESVSRERDELQEGLRRSNEDCAKQMQVLLAQVQNSEQLLRTLQGTVSQAQERVQLQMAELATSHKCLSQEVKRLNEENQGLRAEQLPSSALQGSEQREDQDEALPSSIQELHLLVQNTRQQARARQQAQEHEAERLRIEIVKLREALDEETAAKASLERQLRVQREETDVLEASLCSLRIETERVQQEQRKAQLTDLLSEQRAKTLRLQAELETSEQVQRDFVRLSQALQVRLERIRQAETLQQVRSILDEAPLRDIRDIKDS
B3: CYLD (enzyme, UniProt Q80TQ2 1-952)
chain: MSSGLWSQEKVTSPYWEERIFYLLLQECSVTDKQTQKLLKVPKGSIGQYIQDRSVGHSRVPSTKGKKNQIGLKILEQPHAVLFVDEKDVVEINEKFTELLLAITNCEERLSLFRNRLRLSKGLQVDVGSPVKVQLRSGEEKFPGVVRFRGPLLAERTVSGIFFGVELLEEGRGQGFTDGVYQGKQLFQCDEDCGVFVALDKLELIEDDDNGLESDFAGPGDTMQVEPPPLEINSRVSLKVGESTESGTVIFCDVLPGKESLGYFVGVDMDNPIGNWDGRFDGVQLCSFASVESTILLHINDIIPDSVTQERRPPKLAFMSRGVGDKGSSSHNKPKVTGSTSDPGSRNRSELFYTLNGSSVDSQQSKSKNPWYIDEVAEDPAKSLTEMSSDFGHSSPPPQPPSMNSLSSENRFHSLPFSLTKMPNTNGSMAHSPLSLSVQSVMGELNSTPVQESPPLPISSGNAHGLEVGSLAEVKENPPFYGVIRWIGQPPGLSDVLAGLELEDECAGCTDGTFRGTRYFTCALKKALFVKLKSCRPDSRFASLQPVSNQIERCNSLAFGGYLSEVVEENTPPKMEKEGLEIMIGKKKGIQGHYNSCYLDSTLFCLFAFSSALDTVLLRPKEKNDIEYYSETQELLRTEIVNPLRIYGYVCATKIMKLRKILEKVEAASGFTSEEKDPEEFLNILFHDILRVEPLLKIRSAGQKVQDCNFYQIFMEKNEKVGVPTIQQLLEWSFINSNLKFAEAPSCLIIQMPRFGKDFKLFKKIFPSLELNITDLLEDTPRQCRICGGLAMYECRECYDDPDISAGKIKQFCKTCSTQVHLHPRRLNHSYHPVSLPKDLPDWDWRHGCIPCQKMELFAVLCIETSHYVAFVKYGKDDSAWLFFDSMADRDGGQNGFNIPQVTPCPEVGEYLKMSLEDLHSLDSRRIQGCARRLLCDAYMCMYQSPTMSLYK
B4: WRNIP1 (protein, UniProt Q91XU0 1-660)
chain: MEVSGPEDDPFLSQLHQVQCPVCQQMMPAAHINSHLDRCLLLHPAGHAEPAAGSHRAGERAKGPSPPGAKRRRLSESSALKQPATPTAAESSEGEGEEGDDGGETESRESYDAPPTPSGARLIPDFPVARSSSPARKGMGKRPAAAAAAGSASPRSWDEAEAQEEEEAGVDGDGDADVDGEDDPGHWDADAADASFGVSAGRAHPRALAAEEIRQMLEGKPLADKMRPDTLQDYIGQSRAVGQETLLRSLLEANEIPSLILWGPPGCGKTTLAHIIANNSKKHSIRFVTLSATNAKTNDVRDVIKQAQNEKSFFKRKTILFIDEIHRFNKSQQDTFLPHVECGTITLIGATTENPSFQVNAALLSRCRVIVLEKLPVEAMVTILMRAINSLGIHVLDSSRPTDPLSHSSNCSSEPSVFIEDKAVDTLAYLSDGDARTGLNGLQLAVLARLSSRKVFCKKSGQTYSPSRVLITENDVKEGLQRSHILYDRAGEEHYNCISALHKAMRGSDQNASLYWLARMLEGGEDPLYVARRLVRFASEDIGLADPSALAQAVAAYQGCHFIGMPECEVLLAQCVVYFARAPKSIEVYSAYNNVKACLRSHQGPLPPVPLHLRNAPTRLMKDLGYGKGYKYNPMYSEPVDQDYLPEELRGVDFFKQRRC
B5: TSG101 (protein, UniProt Q61187 1-391)
chain: MAVSESQLKKMMSKYKYRDLTVRQTVNVIAMYKDLKPVLDSYVFNDGSSRELVNLTGTIPVRYRGNIYNIPICLWLLDTYPYNPPICFVKPTSSMTIKTGKHVDANGKIYLPYLHDWKHPRSELLELIQIMIVIFGEEPPVFSRPTVSASYPPYTATGPPNTSYMPGMPSGISAYPSGYPPNPSGYPGCPYPPAGPYPATTSSQYPSQPPVTTVGPSRDGTISEDTIRASLISAVSDKLRWRMKEEMDGAQAELNALKRTEEDLKKGHQKLEEMVTRLDQEVAEVDKNIELLKKKDEELSSALEKMENQSENNDIDEVIIPTAPLYKQILNLYAEENAIEDTIFYLGEALRRGVIDLDVFLKHVRLLSRKQFQLRALMQKARKTAGLSDLY

The chains behind the UniProt entries cited, without tags or fusion partners. Where a name states a change or a piece, a line headed by the entry shows the natural chain unless it says otherwise.
UniProt Q7Z494: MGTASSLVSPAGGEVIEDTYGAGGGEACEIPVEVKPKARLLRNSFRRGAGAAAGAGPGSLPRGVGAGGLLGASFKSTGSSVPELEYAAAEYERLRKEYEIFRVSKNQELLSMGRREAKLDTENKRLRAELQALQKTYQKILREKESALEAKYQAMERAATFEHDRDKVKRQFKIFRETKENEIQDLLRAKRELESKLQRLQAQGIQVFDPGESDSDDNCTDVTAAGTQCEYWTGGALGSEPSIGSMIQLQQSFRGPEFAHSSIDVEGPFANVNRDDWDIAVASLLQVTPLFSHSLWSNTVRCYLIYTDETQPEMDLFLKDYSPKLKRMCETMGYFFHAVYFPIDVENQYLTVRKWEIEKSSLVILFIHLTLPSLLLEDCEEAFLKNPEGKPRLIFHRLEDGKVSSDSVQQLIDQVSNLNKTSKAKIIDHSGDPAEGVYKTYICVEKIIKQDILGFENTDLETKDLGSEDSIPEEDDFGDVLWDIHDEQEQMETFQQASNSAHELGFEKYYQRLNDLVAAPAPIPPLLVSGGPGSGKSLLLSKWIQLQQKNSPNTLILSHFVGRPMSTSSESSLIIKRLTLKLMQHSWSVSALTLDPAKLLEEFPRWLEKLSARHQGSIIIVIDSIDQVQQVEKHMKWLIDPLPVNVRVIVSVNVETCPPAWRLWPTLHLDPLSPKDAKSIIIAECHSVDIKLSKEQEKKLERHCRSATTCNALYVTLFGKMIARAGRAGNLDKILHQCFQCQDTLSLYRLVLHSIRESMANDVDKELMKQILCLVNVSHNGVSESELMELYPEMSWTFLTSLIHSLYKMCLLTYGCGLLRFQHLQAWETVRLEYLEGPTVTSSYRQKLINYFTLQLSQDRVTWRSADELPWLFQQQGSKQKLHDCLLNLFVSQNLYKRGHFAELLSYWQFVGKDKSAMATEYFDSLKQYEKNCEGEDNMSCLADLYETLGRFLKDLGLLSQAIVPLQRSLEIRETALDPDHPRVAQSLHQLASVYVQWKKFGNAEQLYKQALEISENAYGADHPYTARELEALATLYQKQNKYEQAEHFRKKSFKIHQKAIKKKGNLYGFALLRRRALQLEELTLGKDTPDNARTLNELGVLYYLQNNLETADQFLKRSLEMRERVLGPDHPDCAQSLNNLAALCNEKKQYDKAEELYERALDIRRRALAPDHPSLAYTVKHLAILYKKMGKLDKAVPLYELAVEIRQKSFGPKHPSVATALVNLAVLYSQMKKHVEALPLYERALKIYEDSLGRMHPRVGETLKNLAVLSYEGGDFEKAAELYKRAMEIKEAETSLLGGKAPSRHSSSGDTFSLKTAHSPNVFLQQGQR

These are yes or no findings as the source states them, for the method shown. Binding seen in cells or lysates may run through a third protein. A yes stands for co-enrichment or nearness to the bait. Other partners may have been found.

Data on five molecules can be found in PMC9908615.

This assay addresses NPHP3-BioID2-RAD23B (aa185-409) (human) (UniProt Q7Z494). The experiment in a line: proximity labelling; NPHP3-BioID2-RAD23B (aa185-409) stably expressed in IMCD3 Flp-In cells, starvation medium 48 h, 10 uM biotin for the last 24 h; RIPA lysis, StrepTactin Superflow beads 3 h at 4°C, on-bead trypsin digestion, label-free MS; enrichment against the NPHP3-BioID2 control line; 6 replicates per cell line.
Consider B1, for which the binding result was “binds”. The entry for B2 is “binds”. As for B3, the binding entry is listed as “binds”. Regarding B4, the binding entry is given as “binds”.

For the molecule B5, the binding result is reported as “binds”.
